# Assay results: the supplement of paper PMC12819154, “High-throughput peptide-centric local stability assay extends protein–ligand identification to membrane proteins, tissues and bacteria” (Nature Structural & Molecular Biology, 2025)
# The chains behind the UniProt entries cited, without tags or fusion partners. Where a name states a change or a piece, a line headed by the entry shows the natural chain unless it says otherwise.
# UniProt Q69ZK7: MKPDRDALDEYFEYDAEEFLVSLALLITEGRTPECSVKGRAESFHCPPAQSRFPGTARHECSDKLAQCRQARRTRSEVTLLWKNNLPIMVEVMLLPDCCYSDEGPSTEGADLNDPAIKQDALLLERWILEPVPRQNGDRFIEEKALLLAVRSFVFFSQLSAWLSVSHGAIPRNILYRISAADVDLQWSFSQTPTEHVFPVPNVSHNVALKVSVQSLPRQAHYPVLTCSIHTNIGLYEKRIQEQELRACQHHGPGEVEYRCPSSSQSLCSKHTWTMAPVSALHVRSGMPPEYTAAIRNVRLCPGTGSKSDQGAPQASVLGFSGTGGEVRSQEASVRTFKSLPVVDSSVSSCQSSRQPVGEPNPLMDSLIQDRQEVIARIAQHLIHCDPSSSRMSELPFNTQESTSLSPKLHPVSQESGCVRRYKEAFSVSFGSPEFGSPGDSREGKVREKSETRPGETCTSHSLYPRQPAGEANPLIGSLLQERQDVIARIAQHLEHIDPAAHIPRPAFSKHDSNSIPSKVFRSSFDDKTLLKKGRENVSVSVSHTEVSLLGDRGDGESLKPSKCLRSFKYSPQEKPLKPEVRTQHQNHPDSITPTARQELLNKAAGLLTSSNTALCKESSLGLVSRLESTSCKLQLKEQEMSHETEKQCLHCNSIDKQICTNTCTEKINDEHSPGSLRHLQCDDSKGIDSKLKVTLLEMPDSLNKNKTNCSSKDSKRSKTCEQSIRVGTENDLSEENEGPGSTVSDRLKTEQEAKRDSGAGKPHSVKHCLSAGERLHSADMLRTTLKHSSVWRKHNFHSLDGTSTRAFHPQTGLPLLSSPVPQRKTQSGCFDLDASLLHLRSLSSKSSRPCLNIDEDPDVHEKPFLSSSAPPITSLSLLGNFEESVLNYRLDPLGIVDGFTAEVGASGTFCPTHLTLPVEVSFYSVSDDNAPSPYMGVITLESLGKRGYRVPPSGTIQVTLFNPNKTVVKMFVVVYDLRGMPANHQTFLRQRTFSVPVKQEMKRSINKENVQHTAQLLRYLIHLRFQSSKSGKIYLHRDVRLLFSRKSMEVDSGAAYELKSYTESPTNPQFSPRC
# UniProt Q64433, whole entry: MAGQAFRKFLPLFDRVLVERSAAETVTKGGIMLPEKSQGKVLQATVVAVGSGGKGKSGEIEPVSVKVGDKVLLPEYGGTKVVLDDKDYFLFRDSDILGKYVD
# UniProt Q61656: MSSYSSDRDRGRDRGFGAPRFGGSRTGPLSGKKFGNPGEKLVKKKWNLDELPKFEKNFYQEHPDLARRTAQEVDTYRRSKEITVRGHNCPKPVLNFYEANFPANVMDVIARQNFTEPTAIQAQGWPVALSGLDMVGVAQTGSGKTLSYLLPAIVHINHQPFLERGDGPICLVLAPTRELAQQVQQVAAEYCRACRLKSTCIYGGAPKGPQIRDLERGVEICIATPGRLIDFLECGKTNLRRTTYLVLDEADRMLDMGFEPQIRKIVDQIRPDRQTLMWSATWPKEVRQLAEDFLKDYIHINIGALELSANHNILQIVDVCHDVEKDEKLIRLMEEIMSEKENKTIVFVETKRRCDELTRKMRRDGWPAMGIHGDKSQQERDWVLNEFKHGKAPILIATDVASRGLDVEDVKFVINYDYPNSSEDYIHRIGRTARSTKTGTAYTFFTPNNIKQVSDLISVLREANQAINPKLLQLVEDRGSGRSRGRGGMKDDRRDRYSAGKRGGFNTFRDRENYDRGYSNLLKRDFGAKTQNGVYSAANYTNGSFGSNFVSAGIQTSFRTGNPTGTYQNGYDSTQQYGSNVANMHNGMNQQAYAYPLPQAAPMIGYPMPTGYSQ
# UniProt Q68ED7: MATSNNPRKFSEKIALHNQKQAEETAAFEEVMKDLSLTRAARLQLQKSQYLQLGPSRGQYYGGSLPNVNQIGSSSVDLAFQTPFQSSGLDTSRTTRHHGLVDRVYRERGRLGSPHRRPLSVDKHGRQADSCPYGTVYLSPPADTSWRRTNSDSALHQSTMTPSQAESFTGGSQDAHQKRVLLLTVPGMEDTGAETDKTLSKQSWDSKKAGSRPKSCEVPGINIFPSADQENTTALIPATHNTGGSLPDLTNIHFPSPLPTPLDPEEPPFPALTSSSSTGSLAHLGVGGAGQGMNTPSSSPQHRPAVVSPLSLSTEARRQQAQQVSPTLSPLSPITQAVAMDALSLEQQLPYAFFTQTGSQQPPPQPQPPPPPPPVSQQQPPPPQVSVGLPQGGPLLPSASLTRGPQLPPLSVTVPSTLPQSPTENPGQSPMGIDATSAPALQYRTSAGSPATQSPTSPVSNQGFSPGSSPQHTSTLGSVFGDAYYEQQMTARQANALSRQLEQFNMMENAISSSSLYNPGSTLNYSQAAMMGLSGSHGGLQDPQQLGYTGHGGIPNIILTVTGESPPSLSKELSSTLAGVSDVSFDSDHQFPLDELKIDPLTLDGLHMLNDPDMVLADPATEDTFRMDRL
# UniProt Q62084: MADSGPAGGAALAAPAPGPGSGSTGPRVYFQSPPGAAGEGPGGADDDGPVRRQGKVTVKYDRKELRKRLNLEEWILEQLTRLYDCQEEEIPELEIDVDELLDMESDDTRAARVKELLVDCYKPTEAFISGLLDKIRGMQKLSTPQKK
# UniProt Q64318: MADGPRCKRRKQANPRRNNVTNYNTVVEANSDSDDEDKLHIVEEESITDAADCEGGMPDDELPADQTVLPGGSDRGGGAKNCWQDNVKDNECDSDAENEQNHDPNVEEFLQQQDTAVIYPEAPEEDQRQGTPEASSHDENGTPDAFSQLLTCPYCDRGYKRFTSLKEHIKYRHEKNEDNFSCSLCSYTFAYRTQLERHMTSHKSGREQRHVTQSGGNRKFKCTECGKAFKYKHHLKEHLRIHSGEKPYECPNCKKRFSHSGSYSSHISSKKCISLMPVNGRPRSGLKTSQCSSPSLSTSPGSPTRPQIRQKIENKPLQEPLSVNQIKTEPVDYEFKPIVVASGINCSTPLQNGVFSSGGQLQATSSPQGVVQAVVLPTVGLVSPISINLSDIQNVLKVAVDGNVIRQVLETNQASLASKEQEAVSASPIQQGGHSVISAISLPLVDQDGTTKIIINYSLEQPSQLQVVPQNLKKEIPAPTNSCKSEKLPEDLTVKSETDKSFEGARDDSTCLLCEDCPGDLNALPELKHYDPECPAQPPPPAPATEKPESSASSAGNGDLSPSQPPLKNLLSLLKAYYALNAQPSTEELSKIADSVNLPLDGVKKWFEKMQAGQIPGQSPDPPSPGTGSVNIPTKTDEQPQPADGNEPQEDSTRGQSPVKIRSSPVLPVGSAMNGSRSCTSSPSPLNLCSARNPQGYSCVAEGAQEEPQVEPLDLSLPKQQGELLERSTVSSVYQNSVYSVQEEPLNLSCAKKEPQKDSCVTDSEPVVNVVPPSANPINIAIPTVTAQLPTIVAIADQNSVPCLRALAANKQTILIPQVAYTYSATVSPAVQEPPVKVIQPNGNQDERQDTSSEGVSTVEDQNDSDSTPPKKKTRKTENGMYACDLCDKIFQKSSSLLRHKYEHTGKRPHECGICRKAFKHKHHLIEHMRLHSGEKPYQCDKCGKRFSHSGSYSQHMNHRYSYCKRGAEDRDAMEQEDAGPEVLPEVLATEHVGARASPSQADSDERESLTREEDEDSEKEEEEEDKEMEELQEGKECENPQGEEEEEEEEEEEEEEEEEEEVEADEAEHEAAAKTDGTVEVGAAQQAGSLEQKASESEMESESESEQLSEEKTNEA
# UniProt Q62193: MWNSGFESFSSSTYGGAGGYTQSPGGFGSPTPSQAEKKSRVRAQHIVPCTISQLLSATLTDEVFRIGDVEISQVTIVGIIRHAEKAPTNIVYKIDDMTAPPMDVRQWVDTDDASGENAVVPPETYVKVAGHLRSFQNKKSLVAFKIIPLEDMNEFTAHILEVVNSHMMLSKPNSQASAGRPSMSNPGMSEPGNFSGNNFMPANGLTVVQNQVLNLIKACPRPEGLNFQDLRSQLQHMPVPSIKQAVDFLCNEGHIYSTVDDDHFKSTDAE
# UniProt Q68FD5: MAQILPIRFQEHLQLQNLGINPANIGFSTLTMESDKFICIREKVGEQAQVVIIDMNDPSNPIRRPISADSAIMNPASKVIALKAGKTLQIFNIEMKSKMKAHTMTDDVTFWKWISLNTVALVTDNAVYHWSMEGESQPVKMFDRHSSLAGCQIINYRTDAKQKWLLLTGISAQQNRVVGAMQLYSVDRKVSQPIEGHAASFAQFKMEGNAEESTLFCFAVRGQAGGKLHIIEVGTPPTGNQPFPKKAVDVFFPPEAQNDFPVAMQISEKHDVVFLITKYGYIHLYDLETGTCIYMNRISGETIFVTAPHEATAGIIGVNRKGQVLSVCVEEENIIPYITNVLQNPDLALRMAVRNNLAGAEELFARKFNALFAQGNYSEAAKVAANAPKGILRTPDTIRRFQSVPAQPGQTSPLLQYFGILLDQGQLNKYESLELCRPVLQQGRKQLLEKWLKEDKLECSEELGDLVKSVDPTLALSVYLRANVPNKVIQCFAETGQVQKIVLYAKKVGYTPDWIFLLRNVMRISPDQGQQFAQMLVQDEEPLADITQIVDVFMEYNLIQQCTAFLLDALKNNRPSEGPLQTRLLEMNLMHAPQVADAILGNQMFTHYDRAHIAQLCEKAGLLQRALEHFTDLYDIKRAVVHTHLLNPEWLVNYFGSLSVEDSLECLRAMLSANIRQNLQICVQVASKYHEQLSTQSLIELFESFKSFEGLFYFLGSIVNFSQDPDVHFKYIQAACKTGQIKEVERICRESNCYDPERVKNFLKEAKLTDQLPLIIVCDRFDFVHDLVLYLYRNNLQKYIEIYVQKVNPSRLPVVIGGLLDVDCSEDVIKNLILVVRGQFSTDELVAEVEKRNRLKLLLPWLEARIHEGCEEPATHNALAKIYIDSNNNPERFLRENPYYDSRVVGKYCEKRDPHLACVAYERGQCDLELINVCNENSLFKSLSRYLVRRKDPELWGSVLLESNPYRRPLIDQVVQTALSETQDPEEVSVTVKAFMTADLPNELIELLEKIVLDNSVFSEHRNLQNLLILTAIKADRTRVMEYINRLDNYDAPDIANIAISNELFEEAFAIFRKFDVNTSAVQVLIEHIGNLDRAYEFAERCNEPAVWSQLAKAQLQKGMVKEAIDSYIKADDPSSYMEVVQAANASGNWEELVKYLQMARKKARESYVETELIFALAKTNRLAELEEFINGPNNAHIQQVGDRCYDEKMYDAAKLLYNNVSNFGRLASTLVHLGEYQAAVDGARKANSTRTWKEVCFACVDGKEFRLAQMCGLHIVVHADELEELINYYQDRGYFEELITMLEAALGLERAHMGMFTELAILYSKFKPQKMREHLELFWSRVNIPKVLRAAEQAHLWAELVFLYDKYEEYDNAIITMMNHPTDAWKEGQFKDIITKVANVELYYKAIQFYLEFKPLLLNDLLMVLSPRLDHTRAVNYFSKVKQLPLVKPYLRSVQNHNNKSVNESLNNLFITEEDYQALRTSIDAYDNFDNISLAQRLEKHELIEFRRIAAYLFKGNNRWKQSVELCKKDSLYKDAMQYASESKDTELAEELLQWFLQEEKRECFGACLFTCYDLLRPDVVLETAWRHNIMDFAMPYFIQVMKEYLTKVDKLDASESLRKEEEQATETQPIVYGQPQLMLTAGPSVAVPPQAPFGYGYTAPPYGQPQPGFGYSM
# UniProt Q62384: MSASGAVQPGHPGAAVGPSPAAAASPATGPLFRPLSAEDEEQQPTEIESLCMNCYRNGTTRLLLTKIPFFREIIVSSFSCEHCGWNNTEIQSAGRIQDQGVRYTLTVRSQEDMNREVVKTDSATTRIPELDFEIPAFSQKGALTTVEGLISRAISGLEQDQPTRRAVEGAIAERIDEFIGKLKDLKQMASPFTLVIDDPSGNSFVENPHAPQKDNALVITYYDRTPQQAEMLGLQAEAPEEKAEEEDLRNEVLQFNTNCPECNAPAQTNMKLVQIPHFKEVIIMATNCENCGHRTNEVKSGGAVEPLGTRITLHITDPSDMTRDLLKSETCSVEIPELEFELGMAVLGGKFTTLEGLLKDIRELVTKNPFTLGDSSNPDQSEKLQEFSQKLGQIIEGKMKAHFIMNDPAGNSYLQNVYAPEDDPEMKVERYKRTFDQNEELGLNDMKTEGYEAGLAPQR
# UniProt Q61606, whole entry: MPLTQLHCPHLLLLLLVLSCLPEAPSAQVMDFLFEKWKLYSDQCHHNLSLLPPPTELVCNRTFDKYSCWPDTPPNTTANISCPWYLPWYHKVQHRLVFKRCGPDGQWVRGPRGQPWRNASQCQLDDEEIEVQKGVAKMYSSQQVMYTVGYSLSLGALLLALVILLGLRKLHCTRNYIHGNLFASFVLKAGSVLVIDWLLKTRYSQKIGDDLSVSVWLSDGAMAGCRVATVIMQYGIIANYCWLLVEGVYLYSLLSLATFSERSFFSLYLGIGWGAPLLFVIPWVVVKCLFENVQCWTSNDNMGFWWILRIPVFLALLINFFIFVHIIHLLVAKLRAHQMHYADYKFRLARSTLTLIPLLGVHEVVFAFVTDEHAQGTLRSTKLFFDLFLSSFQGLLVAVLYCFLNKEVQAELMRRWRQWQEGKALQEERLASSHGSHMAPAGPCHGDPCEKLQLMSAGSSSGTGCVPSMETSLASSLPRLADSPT
# This is one part of the list. Most entries show no effect beyond the scatter of the controls.
# Compound: CN[C@@H]1C[C@H]2O[C@@](C)([C@@H]1OC)n1c3ccccc3c3c4c(c5c6ccccc6n2c5c31)C(=O)NC4 [staurosporine]
# Experiment: log2 fold change of tryptic peptide abundance, ligand vs vehicle (limited proteolysis) (log2 ratio); higher = more trypsin-susceptible (destabilized)
# Details: ligand concentration: 20 uM; sample: mouse liver crude lysate; replicate design: treated separately
row,Target,log2 fold change
1,"UniProt Q68EF0 (peptide sequence: CALTGQSKPCR, peptide start residue: 347)",0.36
2,"UniProt Q64446 (peptide sequence: AIATQVGINK, peptide start residue: 1226)",0.254
3,"UniProt Q69ZK7 (peptide sequence: YSPQEKPLKPEVR, peptide start residue: 570)",0.442
4,"UniProt Q64700 (peptide sequence: NFTVSAVIFK, peptide start residue: 152)",-0.33
5,"UniProt Q61493 (peptide sequence: KYSNMRK, peptide start residue: 676)",0.0846
6,"UniProt Q62446 (peptide sequence: GWDEALLTMSK, peptide start residue: 174)",0.173
7,"UniProt Q62463 (peptide sequence: GSGEAAGPFHK, peptide start residue: 263)",-0.162
8,"UniProt Q64433 (peptide sequence: DSDILGKYVD, peptide start residue: 93)",0.595
9,"UniProt Q69ZN7 (peptide sequence: GPSGTVSEAQLAR, peptide start residue: 168)",0.0591
10,"UniProt Q61656 (peptide sequence: RTTYLVLDEADR, peptide start residue: 241)",-0.633
11,"UniProt Q62036 (peptide sequence: SMSVATGSEPR, peptide start residue: 45)",0.393
12,"UniProt Q68ED7 (peptide sequence: SQYLQLGPSR, peptide start residue: 48)",0.092
13,"UniProt Q69ZB8 (peptide sequence: LLPQVDAVLR, peptide start residue: 190)",-0.187
14,"UniProt Q62084 (peptide sequence: VTVKYDR, peptide start residue: 37)",-0.119
15,"UniProt Q61316 (peptide sequence: KFDEVLVNHFCEEFGK, peptide start residue: 235)",0.425
16,"UniProt Q64318 (peptide sequence: VIQPNGNQDER, peptide start residue: 838)",0.338
17,"UniProt Q69ZH9 (peptide sequence: TSEDNMTDMVTHMPDRYK, peptide start residue: 1063)",0.754
18,"UniProt Q62193 (peptide sequence: SQLQHMPVPSIK, peptide start residue: 232)",0.0845
19,"UniProt Q63850 (peptide sequence: LAENIDAQLKR, peptide start residue: 440)",0.266
20,"UniProt Q64436 (peptide sequence: VIMVTGDHPITAK, peptide start residue: 613)",-0.341

row,Target,log2 fold change
1,"UniProt Q64176 (peptide sequence: LDQMTAMSLLKK, peptide start residue: 372)",-0.675
2,"UniProt Q63844 (peptide sequence: NYLQSLPSK, peptide start residue: 280)",0.179
3,"UniProt Q68FD5 (peptide sequence: GQFSTDELVAEVEKR, peptide start residue: 838)",-0.237
4,"UniProt Q62178 (peptide sequence: GNPEWVCTRGPMAR, peptide start residue: 540)",-0.421
5,"UniProt Q673H1 (peptide sequence: EAAVETLAPDEPATNRK, peptide start residue: 118)",0.0634
6,"UniProt Q61462 (peptide sequence: ERPQVGGTIK, peptide start residue: 140)",0.0227
7,"UniProt Q62167 (peptide sequence: GDYDGIGGRGDR, peptide start residue: 102)",-0.22
8,"UniProt Q61792 (peptide sequence: GKGFSVVADTPELQR, peptide start residue: 95)",-0.0833
9,"UniProt Q61818 (peptide sequence: AESSPGLLR, peptide start residue: 1239)",0.589
10,"UniProt Q61510 (peptide sequence: VYGKFDTIYQVLVK, peptide start residue: 269)",-0.439
11,"UniProt Q61704 (peptide sequence: FAHNVVTTR, peptide start residue: 58)",-0.19
12,"UniProt Q64362 (peptide sequence: KQLPSIPK, peptide start residue: 38)",0.131
13,"UniProt Q62481 (peptide sequence: TLLPLELQDDGSDSRK, peptide start residue: 116)",-0.139
14,"UniProt Q61646 (peptide sequence: QWVNTVAGEKLPECEAVCGKPK, peptide start residue: 73)",-0.204
15,"UniProt Q61749 (peptide sequence: VVVVDSRPR, peptide start residue: 359)",-0.437
16,"UniProt Q62441 (peptide sequence: SKELSLNEK, peptide start residue: 307)",-0.382
17,"UniProt Q64311 (peptide sequence: PLLVDGQR, peptide start residue: 2)",0.092
18,"UniProt Q62384 (peptide sequence: EVIIMATNCENCGHR, peptide start residue: 280)",-0.629
19,"UniProt Q61606 (peptide sequence: LASSHGSHMAPAGPCHGDPCEK, peptide start residue: 430)",0.157

# For convenience, part of the list above:
row,Target,log2 fold change
9,"UniProt Q61818 (peptide sequence: AESSPGLLR, peptide start residue: 1239)",0.589
10,"UniProt Q61510 (peptide sequence: VYGKFDTIYQVLVK, peptide start residue: 269)",-0.439
11,"UniProt Q61704 (peptide sequence: FAHNVVTTR, peptide start residue: 58)",-0.19
